Results are given in words; binding and its absence hold for the method and conditions named. In cells and extracts the contact can be indirect. Binding can be weak; no strength is given.
Target: T1, endogenous PSAT1 (phosphoserine aminotransferase 1) (human (endogenous in HEK293T, A549, PC9)) (UniProt Q9Y617)
T1 sequence: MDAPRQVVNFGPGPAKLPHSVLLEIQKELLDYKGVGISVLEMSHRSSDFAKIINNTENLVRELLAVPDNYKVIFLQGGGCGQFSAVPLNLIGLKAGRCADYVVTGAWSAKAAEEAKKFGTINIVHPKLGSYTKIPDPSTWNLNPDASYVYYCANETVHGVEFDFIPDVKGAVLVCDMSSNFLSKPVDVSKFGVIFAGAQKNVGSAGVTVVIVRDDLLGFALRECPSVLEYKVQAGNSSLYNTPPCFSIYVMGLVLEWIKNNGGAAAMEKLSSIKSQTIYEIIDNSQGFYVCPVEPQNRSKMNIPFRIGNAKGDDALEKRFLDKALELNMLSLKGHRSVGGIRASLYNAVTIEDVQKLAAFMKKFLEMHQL
Experiment: co-IP; HEK293T transfected with FLAG-PKM2 WT or mutants (MT1-4); endogenous PSAT1 precipitated with anti-PSAT1 from 1 mg lysate (Protein G Dynabeads); immunoblot

Sequences of proteins named here, by UniProt entry; tags and fusion partners are left off. A change or cut given only in a name is not applied to a line headed by its entry.
UniProt P14618: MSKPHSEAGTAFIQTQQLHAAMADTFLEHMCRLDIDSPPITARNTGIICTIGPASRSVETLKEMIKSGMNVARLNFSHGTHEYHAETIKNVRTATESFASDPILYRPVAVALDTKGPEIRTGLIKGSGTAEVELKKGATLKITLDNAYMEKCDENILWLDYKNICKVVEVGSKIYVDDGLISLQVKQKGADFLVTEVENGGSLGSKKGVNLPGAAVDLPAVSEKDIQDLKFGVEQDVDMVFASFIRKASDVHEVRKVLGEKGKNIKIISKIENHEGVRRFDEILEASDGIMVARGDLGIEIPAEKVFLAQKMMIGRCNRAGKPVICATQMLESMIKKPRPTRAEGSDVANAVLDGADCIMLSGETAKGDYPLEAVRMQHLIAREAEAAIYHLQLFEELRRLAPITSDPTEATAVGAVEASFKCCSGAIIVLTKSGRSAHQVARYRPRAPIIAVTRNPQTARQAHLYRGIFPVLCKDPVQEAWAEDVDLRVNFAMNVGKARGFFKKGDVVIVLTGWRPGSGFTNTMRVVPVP

Row | binding | Substance
1 | binds | FLAG-PKM2 mutant MT2 (from UniProt P14618) (enzyme)
2 | binds | FLAG-PKM2 mutant MT1 (from UniProt P14618) (enzyme)
3 | binds | FLAG-PKM2 mutant MT4 (from UniProt P14618) (enzyme)
